The target of experiment [1] is Myc-GATA4-△ZF2 (UniProt P43694). Nature of the experiment: co-IP; HEK293T cells co-transfected with tagged plasmids, lysates in TNE lysis buffer; immunoprecipitation with anti-GFP or anti-Myc antibody or Flag-affinity magnetic beads, western blot for the tag of the partner; for HA-HDAC1 with GFP-p65: with or without co-transfected Flag-GATA4.
Experiment [2] has as its target Myc-GATA4-△ZF1 (UniProt P43694). The experiment is described as above.

Protein sequences, listed by entry. Tags and fused reporters are not part of them. Lines headed by an entry give the natural chain unless they say otherwise; changes in a name come on top.
UniProt P43694: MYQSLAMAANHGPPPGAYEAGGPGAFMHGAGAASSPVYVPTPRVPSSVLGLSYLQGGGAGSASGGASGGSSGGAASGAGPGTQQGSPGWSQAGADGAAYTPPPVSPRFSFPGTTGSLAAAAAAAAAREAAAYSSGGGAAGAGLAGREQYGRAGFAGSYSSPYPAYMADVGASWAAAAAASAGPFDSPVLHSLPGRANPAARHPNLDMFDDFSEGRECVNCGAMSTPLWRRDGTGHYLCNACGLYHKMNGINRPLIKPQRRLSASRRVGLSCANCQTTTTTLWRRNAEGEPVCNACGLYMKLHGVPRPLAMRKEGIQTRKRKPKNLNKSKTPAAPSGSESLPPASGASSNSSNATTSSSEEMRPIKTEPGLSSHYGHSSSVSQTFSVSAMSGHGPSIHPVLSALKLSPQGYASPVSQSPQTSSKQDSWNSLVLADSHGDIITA
UniProt Q04206: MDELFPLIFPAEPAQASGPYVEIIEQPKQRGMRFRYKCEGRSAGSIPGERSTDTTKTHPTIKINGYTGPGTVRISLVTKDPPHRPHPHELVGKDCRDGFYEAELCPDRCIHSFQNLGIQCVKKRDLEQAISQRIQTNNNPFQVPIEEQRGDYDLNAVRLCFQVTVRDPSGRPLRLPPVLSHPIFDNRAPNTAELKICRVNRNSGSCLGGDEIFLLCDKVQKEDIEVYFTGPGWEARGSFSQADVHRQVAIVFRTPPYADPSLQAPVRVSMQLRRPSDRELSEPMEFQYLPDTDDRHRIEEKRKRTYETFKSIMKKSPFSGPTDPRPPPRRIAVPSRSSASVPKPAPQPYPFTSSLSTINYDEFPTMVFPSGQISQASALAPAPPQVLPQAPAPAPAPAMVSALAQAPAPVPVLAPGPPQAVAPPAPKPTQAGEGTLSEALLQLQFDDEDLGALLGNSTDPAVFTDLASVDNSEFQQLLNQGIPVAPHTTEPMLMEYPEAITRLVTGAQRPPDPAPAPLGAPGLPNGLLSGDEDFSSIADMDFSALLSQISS

No constants are given. Whether binding was seen depends on the method and setting. Binding seen in cells or lysates may run through a third protein. Binding calls can cover weak binding; strength is not graded here.

Turning to GFP-p65 (from UniProt Q04206 1-551), the binding result in experiment [1] and in experiment [2] was “binds” each time.

The values above are taken from article PMC11039647.
